{"sequences": {"note": "Protein sequences, listed by entry. Tags and fused reporters are not part of them. Lines headed by an entry give the natural chain unless they say otherwise; changes in a name come on top.", "UniProt Q7EUC6": "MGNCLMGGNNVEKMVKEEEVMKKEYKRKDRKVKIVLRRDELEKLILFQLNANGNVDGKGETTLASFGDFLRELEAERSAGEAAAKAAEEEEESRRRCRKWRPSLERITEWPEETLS"}, "source": "paper PMC8829429", "key": {"[1]": {"target": "Transition zone1 (TZ1) fused to the GAL4 DNA-binding domain (TZ1-BD) (Arabidopsis) (UniProt Q7EUC6)", "assay": "two-hybrid; directed test: TZ1 (pGBKT7) as bait, C-terminal of ACO1 (pGADT7) as prey; Empty-AD as negative control"}, "[2]": {"target": "T1, ACO1-GST (glutathione S-transferase-fused ACO1) (Arabidopsis) (UniProt Q42560)", "T1 sequence": "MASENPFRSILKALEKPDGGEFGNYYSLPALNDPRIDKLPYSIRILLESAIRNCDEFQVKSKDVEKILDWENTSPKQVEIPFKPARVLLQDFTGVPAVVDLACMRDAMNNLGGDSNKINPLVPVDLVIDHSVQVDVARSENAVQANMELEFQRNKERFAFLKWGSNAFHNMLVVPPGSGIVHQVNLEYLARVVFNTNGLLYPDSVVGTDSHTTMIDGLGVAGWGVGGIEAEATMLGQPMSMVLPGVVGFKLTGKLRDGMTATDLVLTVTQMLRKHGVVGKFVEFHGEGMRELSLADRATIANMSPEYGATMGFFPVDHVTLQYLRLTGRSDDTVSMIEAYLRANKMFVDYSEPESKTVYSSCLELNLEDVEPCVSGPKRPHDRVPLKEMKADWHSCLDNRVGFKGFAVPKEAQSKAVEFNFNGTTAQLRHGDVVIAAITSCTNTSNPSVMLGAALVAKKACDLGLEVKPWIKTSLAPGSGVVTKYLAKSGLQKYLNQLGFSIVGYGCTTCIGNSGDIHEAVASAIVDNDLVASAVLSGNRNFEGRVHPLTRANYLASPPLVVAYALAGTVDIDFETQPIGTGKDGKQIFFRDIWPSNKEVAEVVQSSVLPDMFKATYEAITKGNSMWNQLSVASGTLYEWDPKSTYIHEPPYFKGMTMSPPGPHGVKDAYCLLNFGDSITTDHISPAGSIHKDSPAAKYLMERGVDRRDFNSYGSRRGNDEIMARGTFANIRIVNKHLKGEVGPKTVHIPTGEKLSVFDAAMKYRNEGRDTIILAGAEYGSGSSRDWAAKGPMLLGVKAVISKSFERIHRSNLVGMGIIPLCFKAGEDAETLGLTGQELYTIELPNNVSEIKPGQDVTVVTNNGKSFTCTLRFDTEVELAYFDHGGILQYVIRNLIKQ", "assay": "pull-down; purified ACO-GST and TZ1-MBP with Glutathione Sepharose or Amylose Resin overnight at 4°C; washes in 25 mM HEPES pH 7.5, 150 mM NaCl, 1 mM DTT; blots with anti-GST or anti-MBP; both purified"}, "ACO1-MYC (Arabidopsis)": {"target": "T2, ACO1-MYC (Arabidopsis) (UniProt Q42560)", "T2 sequence": "T1 sequence", "assay": "co-IP; cell lysate (10 mM Tris-HCl pH 7.5, 150 mM NaCl, 0.5 mM EDTA, 0.5% NP-40) on MYC-Trap magnetic agarose beads, 4°C, 2 h; blots with anti-MYC and anti-GFP"}, "[3]": {"target": "T3, ACO2 of the CoIP assay (Arabidopsis) (UniProt Q94A28)", "T3 sequence": "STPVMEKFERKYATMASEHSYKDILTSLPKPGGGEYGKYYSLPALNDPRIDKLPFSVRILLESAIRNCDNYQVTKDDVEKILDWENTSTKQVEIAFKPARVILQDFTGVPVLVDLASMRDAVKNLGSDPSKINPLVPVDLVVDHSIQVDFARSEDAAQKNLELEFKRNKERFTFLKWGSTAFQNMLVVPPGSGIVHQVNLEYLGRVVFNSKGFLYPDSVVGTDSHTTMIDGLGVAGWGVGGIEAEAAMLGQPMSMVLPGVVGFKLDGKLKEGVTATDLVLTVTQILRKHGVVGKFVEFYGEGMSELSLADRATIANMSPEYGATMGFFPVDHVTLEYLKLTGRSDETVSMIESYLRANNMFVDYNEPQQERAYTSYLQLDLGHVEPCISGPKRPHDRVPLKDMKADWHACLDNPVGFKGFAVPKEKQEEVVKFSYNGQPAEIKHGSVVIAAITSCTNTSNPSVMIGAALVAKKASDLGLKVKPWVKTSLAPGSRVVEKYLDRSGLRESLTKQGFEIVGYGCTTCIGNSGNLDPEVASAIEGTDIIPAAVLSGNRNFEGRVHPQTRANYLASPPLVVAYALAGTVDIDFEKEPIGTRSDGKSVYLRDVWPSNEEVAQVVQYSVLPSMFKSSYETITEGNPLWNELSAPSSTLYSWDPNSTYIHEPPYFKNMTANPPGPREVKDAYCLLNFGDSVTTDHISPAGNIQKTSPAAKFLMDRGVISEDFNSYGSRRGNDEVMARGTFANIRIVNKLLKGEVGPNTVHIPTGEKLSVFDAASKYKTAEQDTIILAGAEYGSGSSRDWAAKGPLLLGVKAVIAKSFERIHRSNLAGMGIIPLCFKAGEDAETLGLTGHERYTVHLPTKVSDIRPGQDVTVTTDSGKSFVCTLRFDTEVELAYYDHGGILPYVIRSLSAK", "assay": "co-IP; cell lysate (10 mM Tris-HCl pH 7.5, 150 mM NaCl, 0.5 mM EDTA, 0.5% NP-40) on MYC-Trap magnetic agarose beads, 4°C, 2 h; blots with anti-MYC and anti-GFP"}, "[4]": {"target": "T4, ACO3 of the CoIP assay (Arabidopsis) (UniProt Q9SIB9)", "T4 sequence": "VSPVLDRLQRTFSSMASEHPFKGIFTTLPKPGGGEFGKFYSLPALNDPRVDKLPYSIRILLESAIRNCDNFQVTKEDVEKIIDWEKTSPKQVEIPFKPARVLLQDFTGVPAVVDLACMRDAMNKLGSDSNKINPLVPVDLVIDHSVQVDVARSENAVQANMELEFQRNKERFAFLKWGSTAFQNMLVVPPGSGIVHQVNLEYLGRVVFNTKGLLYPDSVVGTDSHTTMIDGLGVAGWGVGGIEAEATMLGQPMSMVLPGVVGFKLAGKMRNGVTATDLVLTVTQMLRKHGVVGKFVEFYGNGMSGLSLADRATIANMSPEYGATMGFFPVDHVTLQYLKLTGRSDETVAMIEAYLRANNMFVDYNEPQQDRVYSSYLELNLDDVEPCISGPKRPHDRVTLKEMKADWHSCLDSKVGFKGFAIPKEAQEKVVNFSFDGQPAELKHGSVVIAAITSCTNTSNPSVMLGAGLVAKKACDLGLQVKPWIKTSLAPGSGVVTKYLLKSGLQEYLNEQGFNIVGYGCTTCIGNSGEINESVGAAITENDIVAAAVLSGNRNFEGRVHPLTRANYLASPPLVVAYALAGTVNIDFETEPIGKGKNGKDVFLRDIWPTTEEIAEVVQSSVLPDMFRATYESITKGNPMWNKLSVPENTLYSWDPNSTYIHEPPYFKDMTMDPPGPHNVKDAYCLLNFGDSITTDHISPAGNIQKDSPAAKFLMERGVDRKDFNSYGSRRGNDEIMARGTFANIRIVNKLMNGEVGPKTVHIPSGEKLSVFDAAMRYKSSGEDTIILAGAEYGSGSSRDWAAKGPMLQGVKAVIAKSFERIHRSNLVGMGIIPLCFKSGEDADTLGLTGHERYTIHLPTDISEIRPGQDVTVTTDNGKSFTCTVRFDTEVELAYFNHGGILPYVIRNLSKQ", "assay": "co-IP; cell lysate (10 mM Tris-HCl pH 7.5, 150 mM NaCl, 0.5 mM EDTA, 0.5% NP-40) on MYC-Trap magnetic agarose beads, 4°C, 2 h; blots with anti-MYC and anti-GFP"}, "[5]": {"target": "T5, ACO1-cLUC (ACO1 634-899 aa) (Arabidopsis) (UniProt Q42560)", "T5 sequence": "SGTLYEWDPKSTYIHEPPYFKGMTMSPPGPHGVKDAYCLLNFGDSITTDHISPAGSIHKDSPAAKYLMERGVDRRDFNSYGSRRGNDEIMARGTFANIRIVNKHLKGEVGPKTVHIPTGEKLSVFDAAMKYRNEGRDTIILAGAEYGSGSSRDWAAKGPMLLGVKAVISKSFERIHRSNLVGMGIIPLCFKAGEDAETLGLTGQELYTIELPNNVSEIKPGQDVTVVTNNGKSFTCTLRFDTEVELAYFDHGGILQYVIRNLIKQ", "assay": "split reporter; luciferase complementation imaging: TZ1-nLUC and ACO (C-terminal)-cLUC co-expressed in N. benthamiana leaves for 48 h; 0.2 mM luciferin, CCD imaging"}, "[6]": {"target": "Transition zone1 (TZ1) fused to the GAL4 DNA-binding domain (TZ1-BD) (Arabidopsis) (UniProt Q7EUC6)", "assay": "two-hybrid; library screen: TZ1-BD (pGBKT7) against a pre-transformed Arabidopsis root cDNA library; GAL4 Two-Hybrid System 3 (Clontech); SD-Trp-Leu-His for 2 days, then SD-Trp-Leu-His-Ade"}}, "note": "These are yes or no findings as the source states them, for the method shown. A result given as binding can be weak or reduced; the word gives no strength. For some of these results: Tags and fused reporters may be left off the sequences shown. For some of these results: Binding seen in cells or lysates may run through a third protein."}
{"substance": "C-terminal of ACO1 in pGADT7 (from UniProt Q42560) (domain or fragment)", "values": [{"measurement": "binding", "setting": "[1]", "result": "binds"}]}
{"substance": "TZ1-MBP (maltose-binding protein-fused TZ1) (from UniProt Q7EUC6)", "values": [{"measurement": "binding", "setting": "[2]", "result": "binds"}]}
{"substance": "TZ1-YFP (from UniProt Q7EUC6)", "values": [{"measurement": "binding", "setting": "ACO1-MYC (Arabidopsis)", "result": "binds"}, {"measurement": "binding", "setting": "[3]", "result": "binds"}, {"measurement": "binding", "setting": "[4]", "result": "binds"}]}
{"substance": "TZ1-nLUC (Arabidopsis)", "values": [{"measurement": "binding", "setting": "[5]", "result": "binds"}]}
{"substance": "aconitase1 (ACO1) (C-terminal) fragment from the Arabidopsis root cDNA library (from UniProt Q42560) (domain or fragment)", "values": [{"measurement": "binding", "setting": "[6]", "result": "binds"}]}
